In article doi:10.1101/2025.09.22.677762:

Molecular target: T1, T13F2.2 (C. elegans (endogenous in N2 worms)) (UniProt Q94045)
T1 sequence: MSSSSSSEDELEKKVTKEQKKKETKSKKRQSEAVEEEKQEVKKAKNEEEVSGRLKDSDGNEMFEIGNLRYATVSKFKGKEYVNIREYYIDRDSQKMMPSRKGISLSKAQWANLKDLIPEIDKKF
Experiment: co-IP

- binding: no binding
Substance: histone H2B (C. elegans (endogenous in N2 worms))

Results are given in words; binding and its absence hold for the method and conditions named. Binding seen in cells or lysates may run through a third protein.
